Data as given in PubChem BioAssay AID504784 (Drosophila RNAi Screening Center, 2011).

Assay: 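Genome-wide knock-down for genes giving too much or too little stored lipid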 (primary screen)
System: Drosophila Kc167 embryonic cells
Knock-down reagent: long dsRNA against Drosophila genes, about 250 ng dsRNA per well
Timing: 4 days
Treatment: cells fed 400 µM oleic acid bound to BSA
Detection: 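Cells imaged and segmented; ratio of lipid droplet area to nuclear area, log-transformed, then normalised as a B-score over the screen; higher means more stored lipid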
Scale: droplet/nuclear area B-score: higher = more stored lipid (overstorage)
The deposit covers about 17,000 reagents; shown is an unselected part of those with a known target gene and a result. 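Each column is one replicate's B-score; the combined score over replicates was not deposited, so single values may mislead.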 Names joined by + are all predicted targets of the reagent.

target gene,DRSC id,"droplet/nuclear area B-score, replicate 1","droplet/nuclear area B-score, replicate 2","droplet/nuclear area B-score, replicate 3"
CG14744 (GeneID 35858),DRSC06480,0.0568,-0.763,
moi + Tgs1,DRSC16371,0.463,0.0641,
CG15446 (GeneID 33088),DRSC20518,1.04,-0.0395,
CG42383 (GeneID 37897),DRSC21733,-0.927,0.607,
Glyp (GeneID 33386),DRSC00752,0.0227,1.56,
CG8329 (GeneID 39123),DRSC10978,0.94,0.223,
fh (GeneID 31845),DRSC18430,-0.0235,-0.32,-0.00591
CG31550 (GeneID 40661),DRSC12197,-1.17,0.48,
CG31550 (GeneID 40661),DRSC12198,1.95,-0.312,
CG31693 (GeneID 318887),DRSC03674,-1.28,0.241,
CG34417 (GeneID 31591),DRSC18332,0.292,0.56,
CG34417 (GeneID 31591),DRSC18333,0.868,1.38,-1.21

The list goes on; the last 2 above are carried over.
target gene,DRSC id,"droplet/nuclear area B-score, replicate 1","droplet/nuclear area B-score, replicate 2","droplet/nuclear area B-score, replicate 3"
CG34417 (GeneID 31591),DRSC18332,0.292,0.56,
CG34417 (GeneID 31591),DRSC18333,0.868,1.38,-1.21
tral (GeneID 39430),DRSC09779,2.18,0.17,
gny (GeneID 34409),DRSC02810,-2.28,0.772,
pncr003:2L (retired record) (GeneID 3772689),DRSC22149,4.09,0.14,
CG10428 (GeneID 35150),DRSC02054,-0.702,-0.259,
Fntb (GeneID 41989),DRSC15244,-0.524,0.411,
CG42362 + CG42363,DRSC04265,-1.49,0.872,
RpL41 (GeneID 251466),DRSC22958,1.06,1.25,
Abcd1 (GeneID 43772),DRSC17157,-0.547,-0.00339,
rnh1 (GeneID 35746),DRSC07673,3.76,4.16,
CG5849 (GeneID 42556),DRSC15893,-0.484,0.261,
Cdk9 (GeneID 37586),DRSC04601,1.91,2.35,
Oatp33Ea (GeneID 34660),DRSC02859,0.164,-0.00232,
Edg91 (GeneID 42117),DRSC16657,-0.527,1.07,
Gfat1 (GeneID 3354921),DRSC21219,-0.463,-0.335,
CR12628 + Mgstl,DRSC03702,0.026,0.663,-0.138
CR12628 + Mgstl,DRSC20568,0.0827,0.201,
Tep5Psi (GeneID 35250),DRSC02183,1.71,-0.794,
Tep5Psi (GeneID 35250),DRSC02184,-0.392,-0.773,
Hsp60B (GeneID 48572),DRSC00542,-0.139,-0.244,
mmm (GeneID 38851),DRSC10208,-0.1,-0.82,
stau (GeneID 37065),DRSC07698,-0.155,0.206,
CheB93b (GeneID 318736),DRSC21762,0.491,-0.281,
